{"source": "patent US12551173B2", "about": "“System and method for single-scan rest-stress cardiac PET” (The General Hospital Corporation, priority 2012, dated 2026)", "origin": "cited, not measured here", "settings": "18F label; cited from earlier work", "note": "At least one read-out could not be matched to a standard name with certainty."}
{"smiles": "CC(C)(C)n1ncc(OCc2ccc(COCCF)cc2)c(Cl)c1=O", "note": "[18F-Flurpiridaz]", "values": [{"measurement": "physical half-life", "value": 1.83, "unit": "h"}]}
